Assay results from article PMC7822942.
These are yes or no findings as the source states them, for the method shown. Binding seen in cells or lysates may run through a third protein.

The chains behind the UniProt entries cited, without tags or fusion partners. Residues count along the entry.
UniProt Q6VNS1, residues 32-825: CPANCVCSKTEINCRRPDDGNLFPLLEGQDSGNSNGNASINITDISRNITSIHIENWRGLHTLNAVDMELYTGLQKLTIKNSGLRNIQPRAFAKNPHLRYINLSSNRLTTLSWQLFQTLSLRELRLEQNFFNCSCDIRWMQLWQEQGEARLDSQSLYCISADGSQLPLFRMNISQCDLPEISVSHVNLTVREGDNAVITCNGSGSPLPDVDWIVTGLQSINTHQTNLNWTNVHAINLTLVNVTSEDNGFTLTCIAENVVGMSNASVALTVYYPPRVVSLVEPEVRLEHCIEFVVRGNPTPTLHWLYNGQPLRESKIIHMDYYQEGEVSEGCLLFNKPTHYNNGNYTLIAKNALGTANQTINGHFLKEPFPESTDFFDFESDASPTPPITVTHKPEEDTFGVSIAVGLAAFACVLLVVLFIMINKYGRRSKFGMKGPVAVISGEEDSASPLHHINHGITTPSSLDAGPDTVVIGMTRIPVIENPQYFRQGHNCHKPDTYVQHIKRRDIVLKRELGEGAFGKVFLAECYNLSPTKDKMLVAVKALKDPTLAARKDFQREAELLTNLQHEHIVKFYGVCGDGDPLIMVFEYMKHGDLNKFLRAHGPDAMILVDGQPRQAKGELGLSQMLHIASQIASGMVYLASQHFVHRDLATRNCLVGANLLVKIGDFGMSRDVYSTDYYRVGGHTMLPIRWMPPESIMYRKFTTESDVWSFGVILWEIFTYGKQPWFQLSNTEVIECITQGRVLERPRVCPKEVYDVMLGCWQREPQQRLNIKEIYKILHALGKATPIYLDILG

Molecular target: T1, GABAA receptor γ2 subunit (mouse (endogenous in brain of gephyrin floxed mice)) (UniProt P22723)
T1 sequence: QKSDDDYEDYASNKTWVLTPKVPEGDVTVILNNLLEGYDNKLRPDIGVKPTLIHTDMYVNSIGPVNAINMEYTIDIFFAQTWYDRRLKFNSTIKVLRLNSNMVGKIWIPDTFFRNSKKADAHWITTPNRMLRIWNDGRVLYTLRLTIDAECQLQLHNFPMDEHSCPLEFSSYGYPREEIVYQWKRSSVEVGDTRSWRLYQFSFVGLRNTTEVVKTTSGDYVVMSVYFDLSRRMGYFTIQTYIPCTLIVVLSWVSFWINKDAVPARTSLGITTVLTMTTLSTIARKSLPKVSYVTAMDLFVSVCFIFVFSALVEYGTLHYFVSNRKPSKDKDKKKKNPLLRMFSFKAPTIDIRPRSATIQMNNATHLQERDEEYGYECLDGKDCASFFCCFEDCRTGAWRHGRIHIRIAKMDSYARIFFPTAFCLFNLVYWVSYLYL
Assay: co-IP; synaptosomal fractions of adult brains of gephyrin floxed mice injected with the indicated AAVs; immunoprecipitated with anti-GABAARγ2 antibodies, rabbit IgG as negative control; immunoblot

binding: no binding
Substance: TrkC (from UniProt Q6VNS1 32-825) (receptor)
